Library screen at single concentrations

The values are deposited in ChEMBL (CHEMBL3988442, “University of Dundee, Small-Polar-MMV Screening Library” (2021)).

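Phenotypic screen: M. tuberculosis growth, cholesterol and DPPC medium, 4 days; the read-out is not stated. Concentration: 500 µM. Higher reads as more growth inhibition (inferred: compounds with an IC50 in retests scored well above the rest). Size under these conditions: about 18,000 compounds, about 900 of them at 50% or above in at least one test.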

The filed quantity is “Percent Effect” (%). The record does not define 0% and 100%; most values in the screen are far below 50% and negative numbers occur (in some assays of this library far below -100). Compounds were drawn at random from those tested, without regard to their results.

| # | Compound | effect |
|---|---|---|
| 1 | `O=C(NC1COC2(CCCCC2)C1)c1cnc[nH]1` (stereo not given) | 11.26 |
| 2 | `CCC(N)C(=O)NCCN1CCCC1` (stereo not given) | 6.715 |
| 3 | `CC(C)CC(NCCS(C)(=O)=O)c1ccccn1` (stereo not given) | -9.247 |
| 4 | `O=C(CN1CCn2ccnc2C1)Nc1ccc(Cl)cn1` | 2.069 |
| 5 | `NCc1cccc(N2CCCS2(=O)=O)c1` | 10.25 |
| 6 | `O=C(NCC1CCS(=O)(=O)C1)N1CCCC1` (stereo not given) | -5.528 |
| 7 | `CCN1CCN(CC(=O)Nc2c(C)cccc2C)CC1` | 1.587 |
| 8 | `Cc1nc(CNC(=O)c2cc(C3CC3)[nH]n2)cs1` | 33.22 |
| 9 | `COc1ccc(CNCc2ccc(C(N)=O)cc2)cc1` | 0.9661 |
| 10 | `COCC(C)NC(=O)CSc1ccc(C(C)=O)cc1F` (stereo not given) | 24.67 |
| 11 | `CC(Cn1cncn1)NCc1ccsc1` (stereo not given) | 17.17 |
| 12 | `CCCNC(=O)C1CCCNC1` (stereo not given) | -0.6842 |
| 13 | `CCOCCN1CCN(CC(=O)NCCC#N)CC1` | 11.13 |
| 14 | `Cn1ccc(C(=O)N2CCCC2c2ccc[nH]2)cc1=O` (stereo not given) | -13.83 |
| 15 | `CC(C)C(NC(=O)CCn1cccn1)c1cccnc1` (stereo not given) | -6.636 |
| 16 | `CNc1ncccc1N` | -252.9 |
| 17 | `O=C(CCN1CCCC(O)C1)N1CCc2ccccc21` (stereo not given) | -3.059 |
| 18 | `CCc1cnc(C(=O)NCC(O)CO)s1` (stereo not given) | 16.51 |
| 19 | `CC(C)(C)OC(=O)NCC1CNCCO1` (stereo not given) | -0.2654 |
| 20 | `COC(=O)[C@@H](C)NC1CCN(c2ccccn2)CC1` | 10.97 |
| 21 | `NC(=O)c1ccc(NC(=O)CCN2CC(O)C2)cc1` | 5.803 |
| 22 | `CCn1ccc(C(=O)NCCc2noc(COC)n2)n1` | 6.831 |
| 23 | `O=c1ccc(Br)cn1Cc1noc(C2CC2)n1` | 69.9 |
| 24 | `CCCc1ccc(CN2Cc3cnn(CCO)c3C2)o1` | 7.275 |
| 25 | `CCc1nn(C)c(CC)c1S(=O)(=O)N1CCC(N)CC1` | -3.024 |
| 26 | `CCOC(=O)Cn1ccc(C)c(C#N)c1=O` | 3.409 |
| 27 | `O=C([C@@H]1CCCN1CCn1cncn1)N1CCOCC1` | -13.13 |
| 28 | `CC(C)C(=O)CNC(=O)c1cc(Cl)cn1C` | 6.68 |
| 29 | `CN1CCN(C(=O)c2cnsn2)c2ccccc21` | 37.14 |
| 30 | `Cn1nc(CC#N)c2ccccc21` | -0.177 |
| 31 | `COc1cccc(CNc2ccccc2CO)n1` | 36.22 |
| 32 | `Cc1ccc(NC(=O)CN2CCCC2=O)nc1` | 0.5961 |
| 33 | `CS(=O)(=O)CCOCCNC1CCCc2occc21` (stereo not given) | -11.68 |
| 34 | `Cc1ccc(C)c(C(=O)N2CCC(N)C2)c1` (stereo not given) | -19.38 |
| 35 | `CN1CCCN(C(=O)c2coc(Br)c2)CC1` | 6.488 |
| 36 | `O=C(CCC(=O)Nc1ccccc1)NCCO` | 2.725 |
| 37 | `CNC(=O)NC(=O)CNc1cccc(Cl)c1C` | -1.77 |
| 38 | `CCCN1CC(C(=O)NC2CCCCC2)CC1=O` (stereo not given) | 7.327 |
| 39 | `CC(NC(=O)Cc1cccnc1)c1cn2ncsc2n1` (stereo not given) | 5.053 |
| 40 | `Cc1noc(C)c1CCC(=O)NC(C)c1ccccn1` (stereo not given) | -1.665 |
| 41 | `Cc1nc(CN(CCO)Cc2nccn2C)cs1` | -4.74 |
| 42 | `O=S(=O)(NCC(O)COCc1ccco1)c1cccs1` (stereo not given) | 25.92 |
| 43 | `CCS(=O)(=O)CCNC(=O)c1cc(CC(C)C)on1` | -6.457 |
| 44 | `C(Cc1noc(C2CNC2)n1)OCC1CC1` | 107.5 |
| 45 | `COC(=O)CCN1CCN(C(=O)c2ccco2)C(C)C1` (stereo not given) | 12.49 |
| 46 | `CN(C)S(=O)(=O)c1cccc2nsnc12` | -12.74 |
| 47 | `CC(C)NC(=O)CNC(=O)CSc1cccs1` | -34.57 |
| 48 | `c1cnc(C2CCCN2)nc1` (stereo not given) | -1.912 |
| 49 | `CN(C(=O)c1ccc(Cl)c(F)c1)C1(C(N)=O)CCCC1` | 3.861 |
| 50 | `CCN(CC)C(=O)CN1CCCC(c2nccn2C)C1` (stereo not given) | 5.295 |
| 51 | `CC(C)CCC1CCCCN1C(=O)CN` (stereo not given) | 10.43 |
| 52 | `C[C@@H]1CN(C(=O)c2ccc(N)nc2)C[C@@]1(O)C1CC1` | 5.524 |
| 53 | `O=C1CC(c2ccccc2Cl)NN1` (stereo not given) | 12.56 |
| 54 | `Cc1cccc(C(=O)NC2CC(N)C2)n1` (stereo not given) | -13.47 |
| 55 | `COc1ccc(C)c(NC(=O)CNC(=O)C2CC2)c1` | 0.01176 |
| 56 | `c1coc(CNCC2CCCO2)c1` (stereo not given) | 6.329 |
| 57 | `COCCC(C)NC(=O)Nc1ccc(C#N)cc1` (stereo not given) | 59.05 |
| 58 | `CC(C)(C)NC(=O)c1ccc(CN2CCCC2)cc1` | 10.74 |
| 59 | `NCc1noc(-c2cccs2)n1` | 17.7 |
| 60 | `CCNc1nc(C)c(C(=O)N2CC(C)(C)[C@@](C)(O)C2)s1` | -9.274 |
| 61 | `Cc1cccc(OCC(O)CNC(C)C)c1` (stereo not given) | 13.43 |
| 62 | `Cc1csc(-n2cccc2)n1` | 10.53 |
| 63 | `NCCCN1CCC(C(N)=O)CC1` | -3.886 |
| 64 | `CCN(CC)C(=O)[C@@H]1C[C@@H](N)CN1C(=O)COC` | -20.42 |
| 65 | `CC(N)C(=O)Nc1cccc(N2CCCC2)c1` (stereo not given) | 21.76 |
| 66 | `O=C(CSC1=NCCN1)Nc1ccc(Cl)cc1` | 13.11 |
| 67 | `CC(Cc1ccco1)NC(=O)Cn1cc(Br)ccc1=O` (stereo not given) | 4.397 |
| 68 | `COC(=O)C(C)(C)NC(=O)c1occc1Br` | -0.9821 |
| 69 | `CCN(CC)CCNC(=O)Nc1nnc2ccccn12` | 4.726 |
| 70 | `N#CCOc1cccc(CN)c1` | 0.2441 |
| 71 | `NC1CC(=O)N(Cc2ccccc2C(F)(F)F)C1` (stereo not given) | 8.657 |
| 72 | `O=C(Nc1nc(C2CC2)cs1)C1CNCCO1` (stereo not given) | 14.99 |
| 73 | `OCc1cn(CC2CC2)nn1` | -8.554 |
| 74 | `CN(C)CCO[C@@H]1COCC[C@H]1NC1CSCCSC1` | -11.67 |
| 75 | `CN(C(=O)CSCCN1CCOCC1)C1CC1` | -6.581 |
| 76 | `Cc1ccc(C(=O)N(C)C2CCS(=O)(=O)C2)cc1` (stereo not given) | -3.285 |
| 77 | `NC1CC(c2cc(NCCn3cc(Cl)cn3)ncn2)C1` (stereo not given) | 7.435 |
| 78 | `O=C(CN1CCCCC1)Nc1cc(Br)ccn1` | -7.32 |
| 79 | `CNc1nc(C(=O)N2CC(C)(C)[C@@](C)(O)C2)cs1` | 6.077 |
| 80 | `Cc1cc(NC(=O)Cc2ccc3c(c2)OCCO3)no1` | 34.03 |
| 81 | `O=C(NCCn1ccnc1)N1CCc2sccc2C1` | 13.83 |
| 82 | `CCNCc1ccc(OCC(N)=O)cc1` | -8.486 |
| 83 | `COCc1ccc(C(=O)N2C[C@H]3CNC[C@H]3C2)o1` | -4.594 |
| 84 | `COCc1noc(CN2CCNCC2)n1` | 5.611 |
| 85 | `CCC1=CS(=O)(=O)c2ccccc21` | 12.47 |
| 86 | `N[C@@H]1C[C@@H](N2CCOCC2)C12CCC2` | 1.654 |
| 87 | `COCC(=O)N1CCN(CC2CCCCC2)CC1` | 5.785 |
| 88 | `CC1CCCCN1C(=O)NC1CCC2(CC1)OCCO2` (stereo not given) | -14.47 |
| 89 | `CC(C)c1cccc(S(=O)(=O)N2CCCC2CN)c1` (stereo not given) | 48.9 |
| 90 | `COCCNC(=O)c1cc(-c2ccccc2F)no1` | 72.98 |
| 91 | `CC1CN(CC(C)(C)O)CCN1` (stereo not given) | 24.19 |

The last 11 entries again:

| Compound | effect |
|---|---|
| `O=C(NCCn1ccnc1)N1CCc2sccc2C1` | 13.83 |
| `CCNCc1ccc(OCC(N)=O)cc1` | -8.486 |
| `COCc1ccc(C(=O)N2C[C@H]3CNC[C@H]3C2)o1` | -4.594 |
| `COCc1noc(CN2CCNCC2)n1` | 5.611 |
| `CCC1=CS(=O)(=O)c2ccccc21` | 12.47 |
| `N[C@@H]1C[C@@H](N2CCOCC2)C12CCC2` | 1.654 |
| `COCC(=O)N1CCN(CC2CCCCC2)CC1` | 5.785 |
| `CC1CCCCN1C(=O)NC1CCC2(CC1)OCCO2` (stereo not given) | -14.47 |
| `CC(C)c1cccc(S(=O)(=O)N2CCCC2CN)c1` (stereo not given) | 48.9 |
| `COCCNC(=O)c1cc(-c2ccccc2F)no1` | 72.98 |
| `CC1CN(CC(C)(C)O)CCN1` (stereo not given) | 24.19 |